In PubChem BioAssay AID248 (DTP/NCI, 2004):
The list shows only some results of the screen, not a fair sample: it is rich in T/C values a quarter to a half above the control, in often repeated tests (any T/C) and in doses without a T/C. Further doses and runs are listed elsewhere. T/C gives the treated animals as a percentage of the vehicle group. Some doses have a count of surviving animals in place of a T/C: the source holds a T/C of zero for them, seemingly a mark for toxic or unscored doses. Some doses without a T/C left all or most animals alive at the check, yet need not have been tolerated: the source hardly ever lists a survival T/C far under the control, and the zero likely stands for such cases as well. Survivors were counted at the toxicity check, usually on the fifth day, unless a day is given; later deaths do not show. Schedule codes are those of the source, taken here to give the interval after Q, in days (D) or hours (H), and the number of doses after X. Some schedule codes hold Z or #, which are not explained here. For survival time, this PubChem deposit counts one and a half times the control or more as active, and values a quarter to a half above the control carry no call in these data; other NCI protocols may use other cut-offs. Some T/C values carry the count of animals alive at the toxicity check (mostly the fifth day); where none is given, no animal had died by that day.

System: L1210 leukemia ip in BDF1 mice, survival T/C
Assay: NCI In Vivo Anticancer Drug Screen. Data for tumor model L1210 Leukemia (intraperitoneal) in B6D2F1 (BDF1) mice
Settings: T/C endpoint: mean survival time, higher T/C = longer survival

SMILES: C1OC1[C@@H]1CC[C@H]1C1CO1 (stereo partly drawn)
- T/C (dose: 115.0 mg/kg/injection, schedule: Q01DX Z (ip), vehicle: carboxymethylcellulose (CMC)): 127 % of control
- T/C (dose: 172.5 mg/kg/injection, schedule: Q01DX Z (ip), vehicle: carboxymethylcellulose (CMC)): 127 % of control
- survivor count (dose: 172.5 mg/kg/injection, schedule: Q01DX Z (ip), vehicle: methylcellulose (MC)): 4 of 4
- T/C (dose: 200.0 mg/kg/injection, schedule: Q01DX001 (ip), vehicle: saline): 137 % of control [3 of 4 alive]
- survivor count (dose: 250.0 mg/kg/injection, schedule: Q01DX Z (ip), vehicle: carboxymethylcellulose (CMC)): 4 of 6
- survivor count (dose: 300.0 mg/kg/injection, schedule: Q01DX001 (ip), vehicle: saline): 0 of 4
- survivor count (dose: 400.0 mg/kg/injection, schedule: Q01DX001 (ip), vehicle: saline): 0 of 4
- survivor count (dose: 500.0 mg/kg/injection, schedule: Q01DX Z (ip), vehicle: carboxymethylcellulose (CMC)): 0 of 6
